These results are taken from the supplement of paper PMC6411743.

Amino acid sequences for entries named in this document (tags omitted). A change or cut given only in a name is not applied to a line headed by its entry.
UniProt P06729: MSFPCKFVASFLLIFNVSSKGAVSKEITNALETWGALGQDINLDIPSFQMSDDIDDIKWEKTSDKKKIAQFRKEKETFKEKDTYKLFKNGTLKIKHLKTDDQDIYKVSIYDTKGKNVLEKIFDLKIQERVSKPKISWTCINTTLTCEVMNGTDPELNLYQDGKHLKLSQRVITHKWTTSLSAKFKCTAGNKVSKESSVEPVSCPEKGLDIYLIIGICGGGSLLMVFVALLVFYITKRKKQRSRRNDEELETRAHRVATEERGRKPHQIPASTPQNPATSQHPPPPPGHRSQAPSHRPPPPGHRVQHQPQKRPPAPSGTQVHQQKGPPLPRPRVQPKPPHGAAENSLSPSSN
UniProt P08758: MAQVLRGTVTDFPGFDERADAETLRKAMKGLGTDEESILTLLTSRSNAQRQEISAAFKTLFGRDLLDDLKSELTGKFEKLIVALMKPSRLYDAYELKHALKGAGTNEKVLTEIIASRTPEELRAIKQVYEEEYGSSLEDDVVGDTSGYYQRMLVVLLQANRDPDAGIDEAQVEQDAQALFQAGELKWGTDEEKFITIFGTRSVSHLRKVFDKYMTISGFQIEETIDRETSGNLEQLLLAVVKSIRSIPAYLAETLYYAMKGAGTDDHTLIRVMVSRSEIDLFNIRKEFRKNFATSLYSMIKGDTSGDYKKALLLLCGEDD
UniProt P02794, whole entry: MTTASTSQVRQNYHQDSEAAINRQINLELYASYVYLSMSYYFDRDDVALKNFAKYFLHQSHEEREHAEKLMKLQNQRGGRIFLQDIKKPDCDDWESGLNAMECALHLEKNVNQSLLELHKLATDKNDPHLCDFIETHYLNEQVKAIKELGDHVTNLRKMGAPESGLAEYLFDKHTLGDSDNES
UniProt P06127: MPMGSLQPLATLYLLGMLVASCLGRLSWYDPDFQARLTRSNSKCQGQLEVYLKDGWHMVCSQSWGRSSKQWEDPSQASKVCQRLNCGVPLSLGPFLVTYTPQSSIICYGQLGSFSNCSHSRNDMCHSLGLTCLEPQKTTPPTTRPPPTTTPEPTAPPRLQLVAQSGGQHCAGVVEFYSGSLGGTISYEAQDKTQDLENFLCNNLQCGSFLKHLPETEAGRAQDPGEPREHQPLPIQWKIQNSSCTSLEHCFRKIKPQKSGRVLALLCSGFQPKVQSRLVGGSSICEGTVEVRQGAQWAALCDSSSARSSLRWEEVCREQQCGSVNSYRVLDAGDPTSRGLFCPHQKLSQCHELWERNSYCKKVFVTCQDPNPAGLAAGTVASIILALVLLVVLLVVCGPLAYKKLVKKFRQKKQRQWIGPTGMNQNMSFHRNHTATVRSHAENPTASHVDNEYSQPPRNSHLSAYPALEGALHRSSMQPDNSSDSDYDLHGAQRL
UniProt P15104, whole entry: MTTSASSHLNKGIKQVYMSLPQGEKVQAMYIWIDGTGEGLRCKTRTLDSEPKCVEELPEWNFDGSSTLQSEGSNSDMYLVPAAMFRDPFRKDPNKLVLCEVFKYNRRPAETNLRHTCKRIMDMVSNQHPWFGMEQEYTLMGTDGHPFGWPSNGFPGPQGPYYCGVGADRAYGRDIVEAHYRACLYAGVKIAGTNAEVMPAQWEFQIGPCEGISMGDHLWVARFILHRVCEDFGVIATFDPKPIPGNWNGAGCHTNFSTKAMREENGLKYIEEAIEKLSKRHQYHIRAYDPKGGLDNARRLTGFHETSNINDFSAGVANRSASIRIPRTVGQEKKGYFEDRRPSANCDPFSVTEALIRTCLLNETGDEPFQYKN
UniProt P09471, whole entry, looked up: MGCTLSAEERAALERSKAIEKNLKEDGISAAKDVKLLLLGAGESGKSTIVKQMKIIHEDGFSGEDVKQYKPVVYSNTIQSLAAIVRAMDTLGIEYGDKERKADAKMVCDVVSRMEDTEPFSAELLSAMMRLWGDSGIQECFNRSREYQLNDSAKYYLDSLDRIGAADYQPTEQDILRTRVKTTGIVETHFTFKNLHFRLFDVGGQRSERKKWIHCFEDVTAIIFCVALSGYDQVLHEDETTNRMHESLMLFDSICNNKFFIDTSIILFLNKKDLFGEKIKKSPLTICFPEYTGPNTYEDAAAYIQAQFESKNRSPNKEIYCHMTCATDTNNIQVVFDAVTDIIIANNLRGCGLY
UniProt P06730, whole entry: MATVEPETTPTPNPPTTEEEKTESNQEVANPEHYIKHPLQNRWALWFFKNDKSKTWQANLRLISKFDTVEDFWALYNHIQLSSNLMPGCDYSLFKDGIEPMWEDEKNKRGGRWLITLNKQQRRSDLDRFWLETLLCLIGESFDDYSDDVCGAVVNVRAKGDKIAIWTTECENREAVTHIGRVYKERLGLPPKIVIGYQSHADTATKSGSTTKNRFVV
UniProt P0C0S5, whole entry, looked up: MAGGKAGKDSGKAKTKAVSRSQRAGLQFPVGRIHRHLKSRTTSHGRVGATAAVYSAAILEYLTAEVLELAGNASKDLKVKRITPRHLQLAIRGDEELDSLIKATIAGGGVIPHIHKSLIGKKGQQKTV
UniProt P02792: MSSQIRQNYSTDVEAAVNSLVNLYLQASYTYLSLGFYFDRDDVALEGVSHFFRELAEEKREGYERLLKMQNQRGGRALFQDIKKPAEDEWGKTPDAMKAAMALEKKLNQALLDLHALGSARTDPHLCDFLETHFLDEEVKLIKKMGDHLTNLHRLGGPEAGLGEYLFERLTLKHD
UniProt P16949: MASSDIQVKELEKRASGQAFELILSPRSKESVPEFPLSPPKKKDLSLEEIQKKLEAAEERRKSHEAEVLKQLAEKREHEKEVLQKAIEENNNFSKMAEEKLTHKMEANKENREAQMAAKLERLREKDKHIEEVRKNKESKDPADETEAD
UniProt P11441: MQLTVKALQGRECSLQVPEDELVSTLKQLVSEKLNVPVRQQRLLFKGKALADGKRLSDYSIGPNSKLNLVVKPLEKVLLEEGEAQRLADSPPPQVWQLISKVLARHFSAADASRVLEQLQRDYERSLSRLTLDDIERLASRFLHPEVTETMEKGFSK
UniProt P12429: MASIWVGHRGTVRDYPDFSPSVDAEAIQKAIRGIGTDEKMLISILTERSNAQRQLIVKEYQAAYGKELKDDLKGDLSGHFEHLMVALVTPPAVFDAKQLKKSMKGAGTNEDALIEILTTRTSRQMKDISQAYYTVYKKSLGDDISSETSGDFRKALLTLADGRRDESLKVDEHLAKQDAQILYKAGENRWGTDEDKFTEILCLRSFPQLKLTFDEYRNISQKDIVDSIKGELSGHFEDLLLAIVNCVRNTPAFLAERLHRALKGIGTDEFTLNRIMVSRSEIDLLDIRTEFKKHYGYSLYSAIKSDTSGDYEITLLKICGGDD
UniProt P15814: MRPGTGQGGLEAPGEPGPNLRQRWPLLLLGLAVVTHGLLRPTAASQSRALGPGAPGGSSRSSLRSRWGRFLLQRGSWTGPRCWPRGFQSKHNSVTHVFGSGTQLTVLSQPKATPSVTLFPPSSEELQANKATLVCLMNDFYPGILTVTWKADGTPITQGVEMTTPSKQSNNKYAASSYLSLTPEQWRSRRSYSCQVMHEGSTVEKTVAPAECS
UniProt P13598: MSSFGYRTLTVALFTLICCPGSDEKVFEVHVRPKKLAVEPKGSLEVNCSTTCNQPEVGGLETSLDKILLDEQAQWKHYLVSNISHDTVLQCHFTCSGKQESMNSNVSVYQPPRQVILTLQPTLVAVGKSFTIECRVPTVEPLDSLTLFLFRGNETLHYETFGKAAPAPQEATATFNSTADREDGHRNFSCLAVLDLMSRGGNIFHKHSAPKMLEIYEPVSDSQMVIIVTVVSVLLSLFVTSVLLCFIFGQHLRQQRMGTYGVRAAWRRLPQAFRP
UniProt P06239: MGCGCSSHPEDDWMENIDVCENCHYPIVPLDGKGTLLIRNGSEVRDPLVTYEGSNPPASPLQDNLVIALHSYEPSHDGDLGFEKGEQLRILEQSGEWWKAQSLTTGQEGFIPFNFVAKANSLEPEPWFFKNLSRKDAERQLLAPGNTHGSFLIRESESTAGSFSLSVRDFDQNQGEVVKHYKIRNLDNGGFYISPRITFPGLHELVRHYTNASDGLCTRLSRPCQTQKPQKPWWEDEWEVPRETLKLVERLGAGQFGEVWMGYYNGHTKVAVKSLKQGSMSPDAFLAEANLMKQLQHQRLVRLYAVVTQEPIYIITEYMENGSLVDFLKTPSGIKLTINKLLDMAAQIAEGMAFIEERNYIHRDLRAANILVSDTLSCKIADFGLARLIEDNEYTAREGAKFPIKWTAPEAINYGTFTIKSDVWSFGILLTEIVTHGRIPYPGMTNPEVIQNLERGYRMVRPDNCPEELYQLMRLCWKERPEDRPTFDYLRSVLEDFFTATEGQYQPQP
UniProt O95825: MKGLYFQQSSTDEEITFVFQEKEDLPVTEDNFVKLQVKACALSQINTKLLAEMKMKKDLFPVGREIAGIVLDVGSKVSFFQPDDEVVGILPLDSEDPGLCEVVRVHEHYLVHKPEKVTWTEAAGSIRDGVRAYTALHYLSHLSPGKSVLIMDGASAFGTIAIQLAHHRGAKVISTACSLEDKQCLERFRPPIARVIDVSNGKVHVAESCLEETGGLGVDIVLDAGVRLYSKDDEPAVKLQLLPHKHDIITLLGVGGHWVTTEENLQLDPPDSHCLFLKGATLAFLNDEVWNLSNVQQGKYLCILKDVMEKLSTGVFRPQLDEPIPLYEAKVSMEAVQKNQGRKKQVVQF
UniProt P00558: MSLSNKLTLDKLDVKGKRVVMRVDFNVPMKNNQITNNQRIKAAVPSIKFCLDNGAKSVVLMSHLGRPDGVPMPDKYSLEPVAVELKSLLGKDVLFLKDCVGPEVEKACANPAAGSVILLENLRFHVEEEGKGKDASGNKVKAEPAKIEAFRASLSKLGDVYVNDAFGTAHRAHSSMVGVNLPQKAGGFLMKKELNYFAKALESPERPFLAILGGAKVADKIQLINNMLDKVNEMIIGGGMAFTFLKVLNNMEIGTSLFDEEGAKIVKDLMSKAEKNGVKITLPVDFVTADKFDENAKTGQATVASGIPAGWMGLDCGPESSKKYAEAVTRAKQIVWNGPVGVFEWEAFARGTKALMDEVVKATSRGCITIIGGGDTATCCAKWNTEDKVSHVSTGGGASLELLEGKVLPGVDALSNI
UniProt P07437, whole entry: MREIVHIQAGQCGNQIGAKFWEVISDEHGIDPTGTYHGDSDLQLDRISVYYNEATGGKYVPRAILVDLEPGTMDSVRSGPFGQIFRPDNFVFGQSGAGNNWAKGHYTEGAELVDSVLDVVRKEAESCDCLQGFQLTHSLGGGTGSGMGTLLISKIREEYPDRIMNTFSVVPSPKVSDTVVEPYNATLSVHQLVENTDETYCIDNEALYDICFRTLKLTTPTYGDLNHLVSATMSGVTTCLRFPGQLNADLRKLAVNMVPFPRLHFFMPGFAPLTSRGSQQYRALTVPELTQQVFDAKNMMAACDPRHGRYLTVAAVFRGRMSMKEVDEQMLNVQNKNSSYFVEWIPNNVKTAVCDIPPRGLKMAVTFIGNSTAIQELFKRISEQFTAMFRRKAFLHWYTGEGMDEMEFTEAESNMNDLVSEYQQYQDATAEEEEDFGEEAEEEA
UniProt P10515, whole entry: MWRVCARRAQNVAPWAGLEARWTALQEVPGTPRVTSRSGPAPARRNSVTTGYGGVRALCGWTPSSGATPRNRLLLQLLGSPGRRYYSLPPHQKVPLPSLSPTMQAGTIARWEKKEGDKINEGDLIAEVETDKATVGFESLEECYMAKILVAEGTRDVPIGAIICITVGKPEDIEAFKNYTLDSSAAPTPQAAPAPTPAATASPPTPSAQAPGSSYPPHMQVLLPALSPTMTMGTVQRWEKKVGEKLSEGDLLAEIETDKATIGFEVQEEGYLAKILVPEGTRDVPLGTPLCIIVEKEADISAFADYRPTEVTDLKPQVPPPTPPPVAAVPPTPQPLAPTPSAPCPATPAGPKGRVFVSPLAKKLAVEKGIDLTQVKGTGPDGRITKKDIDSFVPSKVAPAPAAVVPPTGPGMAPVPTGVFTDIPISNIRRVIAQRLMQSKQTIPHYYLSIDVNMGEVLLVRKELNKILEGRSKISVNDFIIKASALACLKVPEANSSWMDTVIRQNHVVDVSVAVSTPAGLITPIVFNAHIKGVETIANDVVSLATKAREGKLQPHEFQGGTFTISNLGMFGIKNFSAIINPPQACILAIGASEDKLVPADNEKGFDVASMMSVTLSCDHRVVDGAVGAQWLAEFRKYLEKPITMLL
UniProt P10747, whole entry: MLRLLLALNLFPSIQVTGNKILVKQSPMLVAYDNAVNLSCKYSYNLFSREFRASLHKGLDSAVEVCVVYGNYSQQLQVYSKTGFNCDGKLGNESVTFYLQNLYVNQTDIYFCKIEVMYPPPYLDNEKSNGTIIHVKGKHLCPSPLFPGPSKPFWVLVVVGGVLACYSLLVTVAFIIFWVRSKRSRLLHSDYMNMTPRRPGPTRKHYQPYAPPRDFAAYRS
UniProt P00492: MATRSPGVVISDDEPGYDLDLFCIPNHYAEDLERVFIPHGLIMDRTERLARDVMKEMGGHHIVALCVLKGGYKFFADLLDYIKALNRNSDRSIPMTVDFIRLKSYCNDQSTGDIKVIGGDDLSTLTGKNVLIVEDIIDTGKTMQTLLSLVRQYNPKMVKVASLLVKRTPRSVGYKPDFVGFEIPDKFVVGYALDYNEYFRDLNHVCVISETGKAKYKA

Compound in the test: Nc1ncnc2c1ncn2[C@@H]1O[C@H](COP(=O)(O)OP(=O)(O)NP(=O)(O)O)[C@@H](O)[C@H]1O [adenylyl imidodiphosphate]
Put plainly: NP40-soluble protein abundance relative to vehicle (solubility fold change) (ratio); higher = more soluble protein in presence of AMP-PNP. The method, boiled down: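 Crude Jurkat lysate, prepared by Dounce homogenisation, was exposed to eight concentrations from 0.1 to 10 mM for 10 min at room temperature and then 3 min at 37 °C. Solubilisation used 0.8% NP40 with benzonase for 60 min at 4 °C, followed by ultracentrifugation and TMT labelling of the supernatant for LC-MS/MS. After vsn normalisation of intensities, each value is the fold change against the detergent-processed vehicle within each replicate, across three independent experiments.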

± gives the standard deviation of the averaged measurements. The list shows a part of the results, in another mix than the full data. Small differences around the control level are noise.

Consider UniProt P06729, for which the NP40-soluble protein abundance reads like this: (concentration: 0.1mM) 0.987 ± 0.059; (concentration: 0.5mM) 1.05 ± 0.14.

Regarding ANXA5 (UniProt P08758), the NP40-soluble protein abundance runs as follows: (concentration: 0.1mM) 1.05 ± 0.053; (concentration: 0.5mM) 1.01 ± 0.034.

Consider FTH1 (UniProt P02794), for which the NP40-soluble protein abundance is 1.04 ± 0.059 (concentration: 0.1mM) and 1.01 ± 0.043 (concentration: 0.5mM).

Regarding UniProt P16298 and related entries, the NP40-soluble protein abundance by setting is: (concentration: 0.1mM) 0.975 ± 0.016; (concentration: 0.5mM) 0.974 ± 0.032.

Take UniProt P06127: the NP40-soluble protein abundance reads like this: (concentration: 0.1mM) 1 ± 0.032; (concentration: 0.5mM) 0.994 ± 0.052.

In the case of GLUL (UniProt P15104), the NP40-soluble protein abundance by setting is: (concentration: 0.1mM) 0.966 ± 0.014; (concentration: 0.5mM) 0.981 ± 0.05.

As for UniProt P09471-2, the NP40-soluble protein abundance runs as follows: (concentration: 0.1mM) 0.982 ± 0.015; (concentration: 0.5mM) 0.9327 ± 0.0014.

In the case of UniProt P06730 and related entries, the NP40-soluble protein abundance is, setting by setting: (concentration: 0.1mM) 1.08 ± 0.051; (concentration: 0.5mM) 1.01 ± 0.031.

Regarding “P0C0S5 and related entries (UniProt Q71UI9+P0C0S5)”, the NP40-soluble protein abundance by setting is: (concentration: 0.1mM) 0.989 ± 0.069; (concentration: 0.5mM) 0.989 ± 0.12.

Regarding FTL (UniProt P02792), the NP40-soluble protein abundance was found to be 1.02 ± 0.029 (concentration: 0.1mM) and 1.01 ± 0.02 (concentration: 0.5mM).

STMN1 (UniProt P16949): the NP40-soluble protein abundance was 0.962 ± 0.061 (concentration: 0.1mM) and 0.996 ± 0.067 (concentration: 0.5mM).

With UBL4A (UniProt P11441), the NP40-soluble protein abundance by setting is: (concentration: 0.1mM) 1.016 ± 0.0058; (concentration: 0.5mM) 1.038 ± 0.0024.

Consider ANXA3 (UniProt P12429), for which the NP40-soluble protein abundance came to 0.99 ± 0.011 (concentration: 0.1mM) and 1.014 ± 0.0013 (concentration: 0.5mM).

On to IGLL1 (UniProt P15814), for which the NP40-soluble protein abundance is, setting by setting: (concentration: 0.1mM) 1.04 ± 0.046; (concentration: 0.5mM) 1.02 ± 0.051.

Consider ICAM2 (UniProt P13598), for which the NP40-soluble protein abundance (concentration: 0.1mM) was found to be 0.984 ± 0.018 and the NP40-soluble protein abundance (concentration: 0.5mM) came to 1.05 ± 0.046.

With UniProt P06239 and related entries, the NP40-soluble protein abundance (concentration: 0.1mM) turned out to be 1.01 ± 0.02 and the NP40-soluble protein abundance (concentration: 0.5mM) was found to be 1.04 ± 0.011.

For CRYZL1 (UniProt O95825), the NP40-soluble protein abundance (concentration: 0.1mM) was found to be 0.974 ± 0.021 and the NP40-soluble protein abundance (concentration: 0.5mM) was found to be 0.982 ± 0.021.

Take PGK1 (UniProt P00558): the NP40-soluble protein abundance (concentration: 0.1mM) was 0.947 ± 0.21 and the NP40-soluble protein abundance (concentration: 0.5mM) was 0.913 ± 0.15.

Turning to UniProt P07437, the NP40-soluble protein abundance worked out at 1 ± 0.021 (concentration: 0.1mM) and 0.988 ± 0.035 (concentration: 0.5mM).

For the target DLAT (UniProt P10515), the NP40-soluble protein abundance stood at 1.18 ± 0.23 (concentration: 0.1mM) and 1.04 ± 0.16 (concentration: 0.5mM).

As for UniProt P10747 and related entries, the NP40-soluble protein abundance is 1 ± 0.011 (concentration: 0.1mM) and 1.01 ± 0.034 (concentration: 0.5mM).

For the target HPRT1 (UniProt P00492), the NP40-soluble protein abundance by setting is: (concentration: 0.1mM) 1.03 ± 0.031; (concentration: 0.5mM) 0.998 ± 0.087.
